Results deposited as PubChem BioAssay AID1671195 (Yale University, 2021)

- Test: 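Regulators of LDL receptor activity judged by labelled LDL uptake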 (primary screen)
- Cells: human Huh7 hepatoma cells
- Reagent: siRNA pool against human genes, 18 nM
- Duration: about 2 to 2.5 days of knockdown, then 8 h LDL uptake
- Challenge: DiI-labelled LDL at 30 µg/ml for 8 h, in lipoprotein-deficient serum medium
- Read-out: 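Fluorescent LDL signal imaged in cells, scaled to the plate median, robust z-score for each replicate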
- Reading the numbers: robust z-score: higher = more LDL uptake after knockdown
- Call rule: 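Active when two or more replicates show a robust z-score above 2 or below -2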
In all, the deposit lists about 22,000 reagents; shown is a part drawn at random. About 1,510 of them (6.9%) count as active. 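Active includes knockdowns raising or lowering LDL uptake; positive z-scores mean more uptake, negative mean less.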

Gene,"robust z-score, replicate 1","robust z-score, replicate 2","robust z-score, replicate 3",outcome
CFAP276,0.874,0.805,-0.081,inactive
LOC442748 (retired record),0.0111,-0.338,-0.0766,inactive
FAM120C,0.347,1.75,-1.03,inactive
ENPP2,0.277,0.331,0.121,inactive
TP53INP1,6.45,9.24,9.39,active
COL6A2,-0.809,-1.05,-0.124,inactive
PCNX4,-0.415,-1.73,-0.964,inactive
ITFG1,0.491,0.251,0.423,inactive
MPP7,0.0161,-0.373,-0.648,inactive
CRACD,1.01,-0.678,-0.897,inactive
LOC399867 (retired record),-0.47,-1.22,-1.23,inactive
FAF1,0.685,0.35,0.638,inactive
C21orf58,-0.181,-1.44,0.497,inactive
ZNF517,-0.173,0.0398,0.0229,inactive
CEP104,0.255,0.418,-0.62,inactive
SLC16A5,-0.96,-1.24,-0.752,inactive
STARD3,1.38,-0.462,1.62,inactive
TCF15,0.581,-0.207,-0.38,inactive
ADCY5,-0.65,-1.37,-0.172,inactive
NEDD4L,0.216,0.374,0.189,inactive
LOC439961 (retired record),-0.355,0.367,-0.0283,inactive
CDH4,-0.659,-1.11,-0.968,inactive
PCYT2,-0.51,-0.848,-1.09,inactive
GRK3,0.778,1.22,0.663,inactive

Part of the list above, reduced to “robust z-score, replicate 2”:
FAF1: 0.35
C21orf58: -1.44
ZNF517: 0.0398
CEP104: 0.418
SLC16A5: -1.24

The listing continues:
Gene,"robust z-score, replicate 1","robust z-score, replicate 2","robust z-score, replicate 3",outcome
LOC440204 (retired record),0.985,-0.171,0.231,inactive
VKORC1,-0.0465,-0.261,-0.743,inactive
LOC339760 (retired record),-0.145,-0.201,-0.0935,inactive
TEKT3,-2.07,-2.07,-1.42,active
RPS8,-0.991,-1.57,-0.173,inactive
PPP1R12C,-1.83,-1.4,-1.56,inactive
PRR12,-0.61,-1.63,-2.14,inactive
VIPR2,-0.437,-1.31,-0.774,inactive
TTC19,0.866,2.2,1.22,inactive
PPEF2,-0.315,1,-1.16,inactive
AEN,-1.16,-0.883,-0.972,inactive
MRPL47,-0.206,-0.884,-1.07,inactive
C1QC,-1.56,-1.16,-2.07,inactive
CYP1B1-AS1,-0.487,-0.679,-0.69,inactive
MTIF2,0.094,-0.335,1.08,inactive
RANBP9,0.616,-0.282,0.392,inactive
PKHD1,-1.06,-1.03,-1.53,inactive
SPESP1,-0.138,-0.321,-0.381,inactive
LOC440002 (retired record),0.337,0.149,0.556,inactive
SYT8,-1.42,-0.921,-1.15,inactive
SSX6P,-0.925,-0.782,-0.996,inactive
SACM1L,-1.57,-1.19,-1.29,inactive
